Measurements: patent publication US20050004068A1, “Modulation of tor” (priority 2001, published 2005)
At least one compound was matched to its structure with a doubt left.

How the values were obtained:
Format in all cases: cell-based, human
S6K1-GST = assay: Insulin-induced activation of S6K1-GST (rapamycin sensitive) in transfected HEK293 cells; details: 20 nM rapamycin, 100 nM wortmannin, or 2-deoxyglucose 20, 40 and 100 mM
Excerpt: (§1) Rapamycin resistance was conferred by fusing glutathione-S-transferase to the NH2-terminus of S6K1 and truncating the COOH-terminus, creating a construct termed GST-ΔC-S6K1 (Pullen et al.,1 998). For the construction of the GST-ΔC-S6K1 (also known as GST-ΔC104-S6K1) and D3E, K100Q-S6K1-GST plasmids, similar cloning strategies were used. S6K1-GST or GST-ΔC-S6K1 from transiently-transfected, serum-starved HEK293 cells were extracted directly or after insulin stimulation with or without the addition of 20 nM rapamycin or 100 nM wortmannin. Kinase activities, expression levels and T389 phosphorylation were carried out essentially as described above. Expression and activity of S6K1-GST or GST-ΔC-S6K1 were measured after insulin stimulation alone or with increasing amounts of 2-deoxyglucose (20, 40 and 100 mM) essentially as described above. Mock-transfected HEK293 cells were treated using the same conditions and extracted for ATP analysis

GST-ΔC-S6K1 = assay: Insulin-induced activation of GST-ΔC-S6K1 (rapamycin-resistant allele) in transfected HEK293 cells; details: 20 nM rapamycin, 100 nM wortmannin, or 2-deoxyglucose 20, 40 and 100 mM
Excerpt: as §1

Protein Kinase B (PKB) = assay: Insulin-induced HA-PKB activation (S473 phosphorylation, in vitro H2B phosphorylation); details: 100 mM 2-deoxyglucose, 20 nM rapamycin or 100 nM wortmannin
Description: Transiently-transfected, HA-tagged PKB activation was measured in vitro using histone 2B (H2B) as substrate (Franke et al., 1995, Cell 81, 727) after immunoprecipitation from serum-starved cells extracted directly or after insulin stimulation with or without the addition of 100 mM 2-deoxyglucose, 20 nM rapamycin or 100 nM wortmannin. Rapamycin and wortmannin were added to serum-starved cells 30 min prior to insulin-stimulation. HA-PKB expression and S473 phosphorylation were measured essentially as described above. HA-MAPK kinase activity toward using myelin basic protein (MBP) was measured from serum-starved cells extracted directly or after 100 nM TPA stimulation in the presence or absence of 20 nM rapamycin or 100 mM 2-deoxyglucose for 30 min (N. Pullen et al., 1998).

SMILES	insulin-induced phosphorylation/activation of S6K1-GST (S6K1-GST)	insulin-induced phosphorylation/activation of GST-ΔC-S6K1 (GST-ΔC-S6K1)	insulin-induced activation of PKB, as judged by S473 phosphorylation and in vitro phosphorylation of H2B (Protein Kinase B (PKB))
CO[C@H]1C[C@@H]2CC[C@@H](C)[C@@](O)(O2)C(=O)C(=O)N2CCCC[C@H]2C(=O)O[C@H]([C@H](C)C[C@@H]2CC[C@@H](O)[C@H](OC)C2)CC(=O)[C@H](C)/C=C(\C)[C@@H](O)[C@@H](OC)C(=O)[C@H](C)C[C@H](C)/C=C/C=C/C=C/1C [rapamycin]	rapamycin sensitive	resistant to inhibition	
COC[C@H]1OC(=O)c2coc3c2[C@@]1(C)C1=C(C3=O)[C@@H]2CCC(=O)[C@@]2(C)C[C@H]1OC(C)=O [wortmannin]	sensitive	sensitive	sensitive
